# In publication PMC4634852:
# Sequences of proteins named here, by UniProt entry; tags and fusion partners are left off.
# UniProt Q24117: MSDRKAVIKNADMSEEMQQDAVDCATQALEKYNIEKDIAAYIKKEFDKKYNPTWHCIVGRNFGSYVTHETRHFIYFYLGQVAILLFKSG
# No constants are given. Whether binding was seen depends on the method and setting. In cells and extracts the contact can be indirect. Some binding calls cover weakened binding; strength is not graded here. Where a sequence is shown, tags or fusion partners need not be part of it.
# How the values were obtained:
# [1] = molecular target: Spindle-F (Spn-F), full-length, myc-tagged (D. melanogaster) (UniProt Q9V9Y9); assay: co-IP; self-association: lysates of S2 cells co-transfected with two differently tagged copies of a Spn-F form (myc and FLAG in Fig 4J), alone or together with wild-type ik2 or ik2-G250D; co-IP with anti-FLAG antibody; immunoblot
# [2] = molecular target: Cut up (Ctp), Drosophila homologue of dynein light chain 1, FLAG-tagged (Drosophila) (UniProt Q24117); assay: co-IP; lysates of S2 cells transfected with Ctp-FLAG and Ik2-HA or Ik2-G250D-HA, with or without Spn-F-myc (or SpnF-8A-myc, SpnF-8D-myc); anti-FLAG M2 agarose beads; immunoblot
# [3] = molecular target: Cut up (Ctp), Drosophila homologue of dynein light chain 1, FLAG-tagged (Drosophila) (UniProt Q24117); assay: co-IP; lysates of S2 cells co-transfected with a FLAG-tagged bait (Ik2-FLAG or Ctp-FLAG) and a myc-tagged Spn-F form; anti-FLAG M2 agarose beads on ice; lysis buffer 20 mM Tris pH 7.0, 150 mM NaCl, 2 mM EDTA, 1% TritonX-100, 1 mM DTT; immunoblot
# [4] = molecular target: Spn-F-8A, phospho-deficient mutant, myc-tagged (D. melanogaster) (UniProt Q9V9Y9); assay: co-IP; self-association: lysates of S2 cells co-transfected with two differently tagged copies of a Spn-F form (myc and FLAG in Fig 4J), alone or together with wild-type ik2 or ik2-G250D; co-IP with anti-FLAG antibody; immunoblot
binding [1],binding [2],binding [3],binding [4],Binder
binds,binds,binds,,"Spindle-F (Spn-F), full-length, myc-tagged (protein, UniProt Q9V9Y9 1-364) MEASAAKITPMASSMSASGSTNSPSSEKMNYALQVALQTIKERCIQLQRRVASMEEENQQLREASSRSEGAPRANEIGVTGDVLSLKAQVSELQRQKEQLEEHIGMVSNENRRLWSRLSQISKDQQLNALPSSTDSRAQQNQNLVRSKTFTQHSPNPHLRQKMLSDGIKDLSLEEIALDDFGASSEELGYPYNLQKVEETTSEPDANVDAKRCLDGLQELRREAMKQQQELRSVMTLLENRIALKPCPECAQKTIKKPEMADKSLETDDSLTSELKNYESQHNGHNGTPPSQRINIIQEKIKADAADAMEKTCPMCGKQYSSQVSFNAFREHVEMHFIDDALELESENSIERQFEFVSHAVGDF"
,binds,,binds,"Spn-F-8A, phospho-deficient mutant, myc-tagged (protein, UniProt Q9V9Y9 1-364) MEASAAKITPMASSMSASGSTNSPSSEKMNYALQVALQTIKERCIQLQRRVAAMEEENQQLREASSRSEGAPRANEIGVTGDVLALKAQVSELQRQKEQLEEHIGMVSNENRRLWSRLSQISKDQQLNALPSSTDSRAQQNQNLVRSKTFTQHSPNPHLRQKMLSDGIKDLALEEIALDDFGASSEELGYPYNLQKVEETTAEPDANVDAKRCLDGLQELRREAMKQQQELRSVMTLLENRIALKPCPECAQKTIKKPEMADKALETDDALTSELKNYESQHNGHNGTPPSQRINIIQEKIKADAADAMEKTCPMCGKQYSSQVAFNAFREHVEMHFIDDALELESENAIERQFEFVSHAVGDF"
,binds,,,"Spn-F-8D, phospho-mimetic mutant, myc-tagged (protein, UniProt Q9V9Y9 1-364) MEASAAKITPMASSMSASGSTNSPSSEKMNYALQVALQTIKERCIQLQRRVADMEEENQQLREASSRSEGAPRANEIGVTGDVLDLKAQVSELQRQKEQLEEHIGMVSNENRRLWSRLSQISKDQQLNALPSSTDSRAQQNQNLVRSKTFTQHSPNPHLRQKMLSDGIKDLDLEEIALDDFGASSEELGYPYNLQKVEETTDEPDANVDAKRCLDGLQELRREAMKQQQELRSVMTLLENRIALKPCPECAQKTIKKPEMADKDLETDDDLTSELKNYESQHNGHNGTPPSQRINIIQEKIKADAADAMEKTCPMCGKQYSSQVDFNAFREHVEMHFIDDALELESENDIERQFEFVSHAVGDF"
